PubChem BioAssay AID1259254, NCATS – 2017

Aim: 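Finding genes that stop cells copying their DNA twice in one cycle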 (primary screen)
Cells: human HCT116 colorectal cancer cells
Knock-down reagent: single siRNA against human genes
Timing: 3 days
Detection: 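Imaged Hoechst DNA stain sorts each cell into a cycle phase by DNA amount; per plate, G2 fraction set to 0% for non-targeting and 100% for GMNN siRNA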
Reading the numbers: G2 robust z-score: higher = more G2 cells, more excess DNA replication
Hit rule: 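Active siRNAs have a G2 robust z of 5 or more median absolute deviations over the median, which in these data means about 38% or higher of GMNN control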
Shown is one part, drawn at random, of about 59,000 reagents tested. About 1,550 of all reagents (2.6%) were called active. 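G2 share is only a proxy for re-replication; each gene was hit by three separate siRNAs, and active genes were retested.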 The numbers tell different reagents against one gene apart. Not all columns of the deposit are shown. Not given: the amount of reagent.

The opening 10 records, ahead of the listing:
target | siRNA no. | G2 robust z-score | activity call
TP53TG5 | 1 | 0.768 | inactive
TP53TG5 | 2 | -0.923 | inactive
TP53TG5 | 3 | -0.545 | inactive
DYRK2 | 1 | -0.588 | inactive
DYRK2 | 2 | -0.783 | inactive
DYRK2 | 3 | -0.591 | inactive
ETS1 | 1 | 1.03 | inactive
ETS1 | 2 | -1.12 | inactive
ETS1 | 3 | 0.588 | inactive
FGF17 | 1 | 1.6 | inactive

Main list, from the start:
target | siRNA no. | G2 robust z-score | activity call
TP53TG5 | 1 | 0.768 | inactive
TP53TG5 | 2 | -0.923 | inactive
TP53TG5 | 3 | -0.545 | inactive
DYRK2 | 1 | -0.588 | inactive
DYRK2 | 2 | -0.783 | inactive
DYRK2 | 3 | -0.591 | inactive
ETS1 | 1 | 1.03 | inactive
ETS1 | 2 | -1.12 | inactive
ETS1 | 3 | 0.588 | inactive
FGF17 | 1 | 1.6 | inactive
FGF17 | 2 | -0.207 | inactive
FGF17 | 3 | 1.29 | inactive
CLDN14 | 1 | -0.431 | inactive
CLDN14 | 2 | 1.23 | inactive
CLDN14 | 3 | 0.00234 | inactive
SERPINB11 | 1 | 2.39 | inactive
SERPINB11 | 2 | 0.0646 | inactive
SERPINB11 | 3 | -1.34 | inactive
IGFBP6 | 1 | -0.085 | inactive
IGFBP6 | 2 | 0.196 | inactive
IGFBP6 | 3 | -0.0297 | inactive
IFIT1B | 1 | 2.11 | inactive
IFIT1B | 2 | -0.379 | inactive
IFIT1B | 3 | 5.79 | active
ADAM23 | 1 | 0.373 | inactive
ADAM23 | 2 | 1.67 | inactive
ADAM23 | 3 | -0.376 | inactive
KRTAP4-1 | 1 | 0.167 | inactive
KRTAP4-1 | 2 | 6.1 | active
KRTAP4-1 | 3 | 0.445 | inactive
PIEZO1-AS1 | 1 | -0.912 | inactive
PIEZO1-AS1 | 2 | 5.38 | active
PIEZO1-AS1 | 3 | 3.82 | inactive
LOC393078 (retired record) | 1 | 1.17 | inactive
LOC393078 (retired record) | 2 | -0.667 | inactive
LOC393078 (retired record) | 3 | 0.0693 | inactive
RPL6P31 | 1 | 1.02 | inactive
RPL6P31 | 2 | 0.91 | inactive
RPL6P31 | 3 | -0.863 | inactive
COQ2 | 1 | -1.27 | inactive
COQ2 | 2 | -0.734 | inactive
COQ2 | 3 | -1 | inactive
SLC25A2 | 1 | -0.0754 | inactive
SLC25A2 | 2 | 8.18 | active
SLC25A2 | 3 | -0.196 | inactive
OR5D16 | 1 | 1.42 | inactive
OR5D16 | 2 | -0.307 | inactive
OR5D16 | 3 | -0.664 | inactive
SLCO1A2 | 1 | -0.717 | inactive
SLCO1A2 | 2 | 0.221 | inactive
SLCO1A2 | 3 | 6.93 | active
IFNGR2 | 1 | -1.54 | inactive
IFNGR2 | 2 | 0.266 | inactive
IFNGR2 | 3 | -0.226 | inactive
B3GALT5 | 1 | -0.0471 | inactive
B3GALT5 | 2 | -0.528 | inactive
B3GALT5 | 3 | 0.154 | inactive
NELFE | 1 | -0.119 | inactive
NELFE | 2 | 2.71 | inactive
NELFE | 3 | 3.02 | inactive
MLIP | 1 | -0.531 | inactive
MLIP | 2 | -0.327 | inactive
MLIP | 3 | -0.394 | inactive
TOR1AIP1 | 1 | 1.75 | inactive
TOR1AIP1 | 2 | -0.667 | inactive
TOR1AIP1 | 3 | 1.05 | inactive
TICRR | 1 | 5.23 | active
TICRR | 2 | -0.817 | inactive
TICRR | 3 | -0.915 | inactive
TMX3 | 1 | -0.748 | inactive
TMX3 | 2 | -0.75 | inactive
TMX3 | 3 | -1.13 | inactive
SMC2 | 1 | 6.56 | active
SMC2 | 2 | 4.27 | inactive
SMC2 | 3 | 6.89 | active
LRRC8E | 1 | 4.99 | inactive
LRRC8E | 2 | 0.423 | inactive
LRRC8E | 3 | 0.858 | inactive
WDR55 | 1 | -0.661 | inactive
WDR55 | 2 | 0.853 | inactive
WDR55 | 3 | -0.778 | inactive
MYO9A | 1 | 2.55 | inactive
MYO9A | 2 | -0.384 | inactive
MYO9A | 3 | -0.68 | inactive
TXNRD2 | 1 | -0.977 | inactive
TXNRD2 | 2 | -0.294 | inactive
TXNRD2 | 3 | -0.251 | inactive
